This is an account of results in patent publication US11795204B2 (Zealand Pharma A/S, priority 2012, dated 2023).

The nature of this data set: general procedure: Fmoc solid-phase peptide synthesis; Tentagel S PHB-Thr(tBu); HATU or COMU with DIPEA. The conditions noted are these: whole synthesis, analytical HPLC.

Consider H-HSQGTFTSDYSRYLESARAEDFVKWLEST-OH, for which the “final HPLC purity” value is 99%.
